# Laboratory results reported in publication PMC6504953, “Cauliflower mosaic virus transactivator protein (TAV) can suppress nonsense-mediated decay by targeting VARICOSE, a scaffold protein of the decapping complex” (Scientific Reports, 2019).
# Amino acid sequences for entries named in this document (tags omitted). A change or cut given only in a name is not applied to a line headed by its entry.
# UniProt P03558: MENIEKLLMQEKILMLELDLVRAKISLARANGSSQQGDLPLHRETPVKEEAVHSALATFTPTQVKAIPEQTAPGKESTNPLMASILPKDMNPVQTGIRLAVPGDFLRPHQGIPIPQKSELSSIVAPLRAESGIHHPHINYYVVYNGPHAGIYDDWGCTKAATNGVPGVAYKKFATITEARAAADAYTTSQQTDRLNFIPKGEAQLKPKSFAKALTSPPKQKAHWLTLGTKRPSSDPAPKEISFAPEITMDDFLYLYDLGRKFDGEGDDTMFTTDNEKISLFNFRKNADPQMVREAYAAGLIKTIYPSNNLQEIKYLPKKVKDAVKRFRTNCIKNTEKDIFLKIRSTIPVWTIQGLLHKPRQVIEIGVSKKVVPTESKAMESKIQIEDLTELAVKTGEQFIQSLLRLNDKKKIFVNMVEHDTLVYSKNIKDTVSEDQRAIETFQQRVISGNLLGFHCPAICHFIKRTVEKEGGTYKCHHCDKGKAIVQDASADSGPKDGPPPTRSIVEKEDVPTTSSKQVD
# Read-outs that look alike come from different tables or passages of the source. No constants are given. Whether binding was seen depends on the method and setting. Some entries that bind do so weakly or less than the wild type. For part of these data: Tags and fused reporters may be left off the sequences shown.
# B1: VARICOSE (VCS), entire protein, fused to the Gal4 activation domain (natural protein, A. thaliana, UniProt Q9LTT8 1-1344, looked up)
# chain: MASSPGNTNPHNTPPFDLGILFKPSSNPYPPPAASYPPPTGPFLHNQYDQQHYAPPGISAQPSPVTQQQQDVSSSSAATNLHPQRTLSYPTPPLNLQSPRSNHNPGTHILALLNNTNNGAPVANQEPSHQLPVVNHNEIARSFPGGSGPIRVPSCKLPKGRRLIGEHAVYDVDVRLQGEIQPQLEVTPITKYGSDPQLVVGRQIAVNKVYICYGLKGGNIRVLNINTALRSLFRGHSQRVTDMAFFAEDVDMLASVSLDGKVFVWKISEGSEGEDQPQITGKIVLALQILGEEDTKHPRVCWHCHKQEILVVSIGKHVLRIDTTKVGRGEVFSAEAPLQCPLDKLIDGVQIVGKHDGEVTDLSMCQWMTTRLVSSSVDGTIKIWQDRKAQPLVVLRPHDGHPVSSATFVTSPERPDHIILITGGPLNREMKIWVSAGEEGWLLPADAESWRCTQTLDLKSSTEPRAEEAFFNQVIALSEAGLLLLANAKRNALYAVHLDYGSSPVGTRMDYLSEFTVTMPILSFIGTNDPPEEPIVKVYCVQTLAIQQYTLDLCLCLPPPIENMGLEKSDSSVSREANLVEGMSEPSGLKPTDLPSVDSVPKPSIIVNRSESANKLSFPSAEATSQAIVPPNGEPKTSGLPSQTSGAGSAYATLPQLPLSPRLSSKLSGYHTPVEAIEPVIPHHELGGKTPSADYSVDRQMDAVGERNLDVSSVEEISRSKDSNVTPDDDVSGMRSPSAFFKHPTHLVTPSEILMGVSSAEASITTEDRRDRDANIQDVNNDPRDTEVEVKEISEARSTQNGEINDHDETENCTSENREKVFCSQVSNLSTEMARDCYPSTEGTFIPGESKAYGQPIKAGDESGVDSRGGPAKLLKGKKQKAKNSQGPGLSSTSSNVANLADSFNEQSQSLSHPMTDLLPQLLAMQETMNQVMASQKEMQRQLSNAATGPIGKESKRLEVALGRMIEKSSKSNADALWARIQEETVKNEKALRDHAQQIVNATTNFMSKELNAMFEKTIKKELAAIGPALARSVVPVIEKTVSSAITESFQRGIGDKAVNQLDKSVNIKLEATVARQIQAQFQTSGKQALQEGLRSSVESSVIPSFEKACKAMFDQIDSAFQKGIAEHTNAAQQRFDSGHSQLAHTLKESITSASSVAQALSRELAETQRNLLALAAAGANSGGSNSLVTQLSGGPLGALLEKVEAPMDPTTELSRLISERKYEESFTSALQRSDVSIVSWLCSQVDLRGLLAMNPLPLSQGVLLSLLQQLACDISKDTSRKLAWMTDVVAAINPSDQMIAVHARPIFEQVYQILHHHRNAPGSDVSAIRLIMHVINSMLMGCK
# Assays:
# Assay in all cases: two-hybrid; Gal4 AD and BD fusions co-transformed in yeast strain AH109; selection on medium lacking Leu, Trp and Ade; equal OD600 units and 1/10 and 1/100 dilutions spotted, 2 days; self-interaction of TAV: two fusions of entire TAV
# [1] = molecular target: VCS-C2 domain (aa 1181-1341) fused to the Gal4 binding domain (A. thaliana) (UniProt Q9LTT8)
# [2] = molecular target: Cauliflower mosaic virus translation transactivator/viroplasmin (TAV), strain CM1841, fused to the Gal4 activation domain (Cauliflower mosaic virus (strain CM1841)) (UniProt P03558)
# [3] = molecular target: Amino terminal portion of TAV (NTAV, residues 26-242) fused to the Gal4 binding domain (Cauliflower mosaic virus (strain CM1841)) (UniProt P03558)
# [4] = molecular target: Cauliflower mosaic virus translation transactivator/viroplasmin (TAV), strain CM1841, fused to the Gal4 binding domain (Cauliflower mosaic virus (strain CM1841)) (UniProt P03558)
# [5] = molecular target: Amino terminal portion of TAV (NTAV, residues 26-242) fused to the Gal4 binding domain (Cauliflower mosaic virus (strain CM1841)) (UniProt P03558); remark: listed apart in the source
# [6] = molecular target: Cauliflower mosaic virus translation transactivator/viroplasmin (TAV), strain CM1841, fused to the Gal4 binding domain (Cauliflower mosaic virus (strain CM1841)) (UniProt P03558); remark: listed apart in the source
molecule,measurement,setting,value
"Cauliflower mosaic virus translation transactivator/viroplasmin (TAV), strain CM1841, fused to the Gal4 activation domain (from UniProt P03558 1-520)",binding,[1],binds
same,binding,[2],binds
VCS-C2 domain (aa 1181-1341) fused to the Gal4 activation domain (from UniProt Q9LTT8 1181-1341) (domain or fragment),binding,[3],binds
same,binding,[4],binds
B1,binding,[5],binds
same,binding,[6],no binding
